Experimental data: the supplement of paper PMC10331698
± gives the standard deviation of the averaged measurements. Most entries show no effect beyond the scatter of the controls.

How the values were obtained:
Assay in all cases: level (log10 ratio to DMSO vehicle control); higher = higher biomarker level / cell amount than vehicle control
[1] = compound: C=C(C)C(=O)OCCC(F)(F)C(F)(F)C(F)(F)C(F)(F)C(F)(F)C(F)(F)F [6:2 Fluorotelomer methacrylate] (in DMSO); conditions: 2200 nM
Method: (§1)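 BioMAP Diversity Plus panel of 12 human primary cell co-culture systems (3C, 4H, LPS, SAg, BT, BF4T, BE3C, CASM3C, HDF3CGF, KF3CT, MyoF, Mphg). Compounds were added 1 h before stimulation and left for 24 h (MyoF 48 h; BT 72 h for soluble read-outs or 6 d for IgG). Biomarkers were read by ELISA, cytotoxicity by SRB, PBMC viability and proliferation by Alamar Blue. Each well value was divided by the mean of 8 DMSO control wells on the same plate and log10 transformed; duplicate blinded samples were tested at 4 concentrations.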

[2] = compound: OCC(F)(F)C(F)(F)C(F)(F)C(F)F [1H,1H,5H-Perfluoropentanol] (in DMSO); conditions: 2200 nM
Method: as §1

[3] = compound: CNS(=O)(=O)C(F)(F)C(F)(F)C(F)(F)C(F)(F)C(F)(F)C(F)(F)C(F)(F)C(F)(F)F [N-Methylperfluorooctanesulfonamide] (in DMSO); conditions: 2200 nM
Method: as §1

[4] = compound: O=C(O)CCC(F)(F)C(F)(F)C(F)(F)F [3:3 Fluorotelomer carboxylic acid] (in DMSO); conditions: 2200 nM
Method: as §1

[5] = compound: FC(F)(F)C(F)(F)CNCC(F)(F)C(F)(F)F [Bis(1H,1H-perfluoropropyl)amine] (in DMSO); conditions: 2200 nM
Method: as §1

[6] = compound: FC(F)(F)COC(OCC(F)(F)F)OCC(F)(F)F [tris(Trifluoroethoxy)methane] (in DMSO); conditions: 2200 nM
Method: as §1

[7] = compound: O=C(O)C(F)(OC(F)(F)C(F)(OC(F)(F)C(F)(OC(F)(F)C(F)(F)C(F)(F)F)C(F)(F)F)C(F)(F)F)C(F)(F)F [Perfluoro-(2,5,8-trimethyl-3,6,9-trioxadodecanoic)acid] (in DMSO); conditions: 370 nM
Method: as §1

[8] = compound: OCCCC(F)(F)C(F)(F)C(F)(F)C(F)(F)C(F)(F)C(F)(F)C(F)(F)C(F)(F)F [3-(Perfluorooctyl)propanol] (in DMSO); conditions: 2200 nM
Method: as §1

[9] = compound: O=S(=O)(O)C(F)(F)C(F)(F)C(F)(F)C(F)(F)F [Perfluorobutanesulfonic acid] (in DMSO)
Method: as §1

[10] = compound: O=C(O)C(F)(F)C(F)(F)C(F)(F)OC(F)(C(F)(F)F)C(F)(F)F [Perfluoro-4-isopropoxybutanoic acid] (in DMSO); conditions: 2200 nM
Method: as §1

Perfluorohexanoic acid = compound: O=C(O)C(F)(F)C(F)(F)C(F)(F)C(F)(F)C(F)(F)F [Perfluorohexanoic acid] (in DMSO)
Method: as §1

[11] = compound: O=C(O)C(F)(OC(F)(F)C(F)(F)C(F)(F)F)C(F)(F)F [Ammonium perfluoro-2-methyl-3-oxahexanoate] (in Water)
Method: as §1

Hexafluoroglutaric acid = compound: O=C(O)C(F)(F)C(F)(F)C(F)(F)C(=O)O [Hexafluoroglutaric acid] (in DMSO)
Method: as §1

[12] = compound: FC(F)(F)C(F)(F)C(F)(F)C(F)(F)CCI [1H,1H,2H,2H-Perfluorohexyl iodide] (in DMSO); conditions: 2200 nM
Method: as §1

[13] = compound: OCC(F)(F)C(F)(F)C(F)(F)C(F)(F)C(F)(F)C(F)(F)F [6:1 Fluorotelomer alcohol] (in DMSO); conditions: 2200 nM
Method: as §1

[14] = compound: OCC(F)(F)OC(F)(F)C(F)(F)OC(F)(F)CO [1H,1H,8H,8H-Perfluoro-3,6-dioxaoctane-1,8-diol] (in DMSO); conditions: 2200 nM
Method: as §1

[15] = compound: OCC(F)(F)C(F)(F)C(F)(F)C(F)(F)C(F)(F)C(F)(F)CO [1H,1H,8H,8H-Perfluorooctane-1,8-diol] (in DMSO); conditions: 2200 nM
Method: as §1

| Test System | level (log10) [1] | level (log10) [2] | level (log10) [3] | level (log10) [4] | level (log10) [5] | level (log10) [6] | level (log10) [7] | level (log10) [8] | level (log10) ([9]; 2200 nM) | level (log10) ([9]; 6700 nM) | level (log10) ([9]; 20000 nM) | level (log10) ([9]; 60000 nM) | level (log10) [10] | level (log10) (Perfluorohexanoic acid; 2200 nM) | level (log10) (Perfluorohexanoic acid; 6700 nM) | level (log10) (Perfluorohexanoic acid; 20000 nM) | level (log10) (Perfluorohexanoic acid; 60000 nM) | level (log10) ([11]; 2200 nM) | level (log10) ([11]; 6700 nM) | level (log10) ([11]; 20000 nM) | level (log10) ([11]; 60000 nM) | level (log10) (Hexafluoroglutaric acid; 2200 nM) | level (log10) (Hexafluoroglutaric acid; 6700 nM) | level (log10) (Hexafluoroglutaric acid; 20000 nM) | level (log10) (Hexafluoroglutaric acid; 60000 nM) | level (log10) [12] | level (log10) [13] | level (log10) [14] | level (log10) [15] |
| --- | --- | --- | --- | --- | --- | --- | --- | --- | --- | --- | --- | --- | --- | --- | --- | --- | --- | --- | --- | --- | --- | --- | --- | --- | --- | --- | --- | --- | --- |
| BT:sIL-17F | 0 ± 0.021 | 0.063 ± 0.17 | -0.005 ± 0.16 | -0.045 ± 0.0028 | 0.054 ± 0.081 | -0.0265 ± 0.056 | -0.032 ± 0.2 | 0.0365 ± 0.0078 | -0.0135 ± 0.0092 | 0.008 ± 0.0057 | 0.0145 ± 0.04 | -0.0225 ± 0.0064 | -0.133 ± 0.13 | -0.071 ± 0.14 | -0.081 ± 0.0014 | -0.002 ± 0.081 | -0.047 ± 0.031 | 0.0405 ± 0.05 | 0.111 ± 0.016 | 0.116 ± 0.012 | 0.0455 ± 0.012 | 0.009 ± 0.068 | 0.046 ± 0.071 | 0.0335 ± 0.05 | -0.004 ± 0.0085 | -0.0385 ± 0.025 | -0.0185 ± 0.011 | 0.007 ± 0.045 | 0.002 ± 0.081 |
| BT:sTNF-alpha | -0.0205 ± 0.042 | 0.0855 ± 0.12 | 0.008 ± 0.12 | 0.126 ± 0.12 | 0.0735 ± 0.018 | 0.083 ± 0.017 | -0.004 ± 0.064 | 0.086 ± 0.15 | -0.0515 ± 0.033 | 0.0295 ± 0.011 | 0.0515 ± 0.071 | 0.015 ± 0.011 | 0.0255 ± 0.2 | 0.002 ± 0.048 | -0.036 ± 0.05 | -0.023 ± 0.081 | -0.01 ± 0.11 | -0.0505 ± 0.13 | -0.035 ± 0.037 | 0.013 ± 0.034 | 0.0045 ± 0.093 | 0.0265 ± 0.018 | 0.026 ± 0.13 | 0.0415 ± 0.039 | 0.116 ± 0.039 | 0 ± 0.095 | 0.037 ± 0.15 | -0.011 ± 0.018 | 0.012 ± 0.19 |
| CASM3C:CCL2/MCP-1 | -0.0155 ± 0.022 | 0.019 ± 0.0042 | 0.0255 ± 0.033 | -0.0055 ± 0.012 | -0.0105 ± 0.012 | 0.0095 ± 0.035 | 0.008 ± 0.017 | 0.009 ± 0.038 | 0.001 ± 0.0099 | -0.0085 ± 0.0092 | -0.0125 ± 0.035 | -0.0045 ± 0.021 | 0.0255 ± 0.032 | 0.0075 ± 0.022 | -0.014 ± 0.0042 | 0.0025 ± 0.021 | 0.008 ± 0.027 | -0.033 ± 0.034 | -0.0235 ± 0.021 | -0.034 ± 0.035 | -0.013 ± 0.013 | 0.0145 ± 0.063 | -0.0115 ± 0.033 | -0.024 ± 0.025 | 0.0205 ± 0.039 | 0.0355 ± 0.04 | 0.002 ± 0.042 | -0.0135 ± 0.037 | 0.0085 ± 0.044 |
| CASM3C:CD87/uPAR | -0.022 ± 0.0042 | 0.0115 ± 0.0092 | -0.0025 ± 0.0092 | 0.0005 ± 0.0021 | -0.022 ± 0.021 | -0.0195 ± 0.005 | -0.0035 ± 0.021 | -0.0295 ± 0.039 | -0.015 ± 0.023 | -0.0275 ± 0.03 | -0.047 ± 0.045 | -0.0575 ± 0.0092 | -0.0095 ± 0.033 | 0.0185 ± 0.00071 | -0.003 ± 0.027 | 0.0085 ± 0.022 | -0.012 ± 0.0014 | 0.0175 ± 0.016 | -0.031 ± 0.076 | 0.0075 ± 0.011 | 0.014 ± 0.027 | -0.0225 ± 0.018 | -0.001 ± 0.014 | -0.0185 ± 0.033 | -0.0075 ± 0.0035 | -0.0085 ± 0.042 | -0.021 ± 0.03 | -0.0005 ± 0.0021 | -0.0155 ± 0.025 |
